Measured values from patent publication EP0405506A1 (ABBOTT LABORATORIES, priority 1989, dated 1991).
Strings that start with PEPTIDE1 are HELM notation: dots part the residues, brackets hold end groups and non-standard residues.

Assay: general procedure: solution-phase peptide synthesis; DPPA/N-methylmorpholine; active esters (Boc-Trp-OSu, trichlorophenyl ester); iso

| Substance | step yield (coupling step) | step yield (late stage modification step) |
| --- | --- | --- |
| Boc-5-amino-pentenoyl-Leu-Asp-Phe-NH₂ | 50% |  |
| Boc-Trp-Leu-Asp(Bn)-3(S)-benzyl-2-oxo-4-piperazine | 84% |  |
| Boc-Trp-Leu-Asp(Bn)-α-Nal-NH₂ | 70% |  |
| Boc-Trp-Leu-Asp(Bn)-β-Nal-NH₂ | 73% |  |
| Boc-Trp-Leu-Asp-3(S)-benzyl-2-oxo-4-piperazine |  | 19% |
| Boc-Trp-Tpp-Asp(Bn)-Phe-NH₂ | 83% |  |
| Ctp-Leu-Asp(Bn)-Phe-NHNH-Z | 60% |  |
| Ctp-Pip-Asp(O-t-Bu)-Phe-NH₂ | 52% |  |
| Ctp-Tpp-Asp(Bn)-Phe-NH₂ | 47% |  |
| Ctp-Tpp-Asp(OBn)(NMe)Phe-NH2 | 57% |  |
| PEPTIDE1{[cap_Boc].W.L.D.[a1Nal].[am]}$$$$V2.0 |  | 71% |
